# Laboratory results: PubChem BioAssay AID1259424 (University of Nebraska Medical Center, 2018)
# Purpose: 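Rank knockdowns across the genome by resemblance to the KSR1 depletion profile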 (primary screen)
# Cell system: human HCT116 colon cancer cells
# Reagent: siRNA pool against human genes, 50 nM
# Measurement: 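Six signature mRNAs by branched-DNA multiplex assay, scaled to two housekeeping genes and non-targeting median, log2; matched to mean KSR1 knockdown profile by Pearson correlation and euclidean distance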
# Reading the numbers: mean correlation with KSR1 profile and KSR1 correlation: higher = expression change more like KSR1 knockdown; mean distance from KSR1 profile: higher = expression change less like KSR1 knockdown
# This is a random part of about 14,000 deposited reagents. 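Higher correlation or smaller distance means closer resemblance to KSR1 loss; control wells, including KSR1 knockdowns, recur on many plates.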 The record does not give: the time to read-out.
gene symbol,PubChem SID,mean correlation with KSR1 profile,mean distance from KSR1 profile,"KSR1 correlation, replicate 1","KSR1 correlation, replicate 2","KSR1 correlation, replicate 3"
MBNL2,SID364005012,-0.172,1.94,-0.00972,-0.158,-0.407
P3H3,SID363998697,0.017,4.06,0.205,-0.11,-0.346
MAPKAPK3,SID363995603,0.149,2.24,0.186,0.643,-0.523
ARHGAP23,SID364005350,-0.749,5.66,-0.696,-0.487,-0.593
CASKIN1,SID364001813,0.403,1.24,0.442,0.403,0.34
PLPPR3,SID364003138,-0.37,1.29,-0.104,-0.445,-0.589
ATP1B2,SID363992901,0.0547,2.11,0.185,-0.0968,-0.0645
SMN2,SID364000292,-0.16,1.72,0.0182,-0.24,0.087
HES4,SID364002059,0.318,3.36,0.369,0.295,0.402
CCR3,SID363993052,0.733,1.06,0.542,0.689,0.848
DMC1,SID363997798,0.032,2.65,0.0963,0.0642,-0.179

Targets listed so far whose target name begins with C or c:
gene symbol,PubChem SID,mean correlation with KSR1 profile,mean distance from KSR1 profile,"KSR1 correlation, replicate 1","KSR1 correlation, replicate 2","KSR1 correlation, replicate 3"
CASKIN1,SID364001813,0.403,1.24,0.442,0.403,0.34
CCR3,SID363993052,0.733,1.06,0.542,0.689,0.848

Further entries follow.
gene symbol,PubChem SID,mean correlation with KSR1 profile,mean distance from KSR1 profile,"KSR1 correlation, replicate 1","KSR1 correlation, replicate 2","KSR1 correlation, replicate 3"
TNFSF11,SID363994771,0.151,1.57,0.101,0.0212,0.217
PPP2R1B,SID363993875,-0.123,1.1,-0.000518,-0.448,0.0342
SMC3,SID363996351,-0.431,1.95,-0.239,-0.314,-0.455
TRIM38,SID363997171,0.315,1.21,0.44,0.209,0.38
CCDC183,SID364004247,0.885,1.81,0.829,0.794,0.872
RAD54L,SID363994659,-0.228,1.27,-0.459,0.269,-0.085
AKAP4,SID363994945,0.525,1.67,0.632,0.489,0.1
ACOXL,SID364000964,0.139,3.26,0.444,0.162,0.014
E2F8,SID364002971,0.29,2.71,0.312,0.413,0.149
ELK3,SID363996152,-0.678,2.79,-0.71,-0.574,-0.578
LILRA2,SID363997630,-0.298,1.93,-0.343,-0.155,-0.296
TMEM245,SID364003734,-0.376,2.33,0.0638,-0.409,-0.521
ZNF652,SID364005535,-0.292,2.61,0.00946,-0.399,-0.401
CRISP2,SID363994415,-0.568,2.66,-0.429,-0.799,-0.371
FBXO8,SID363998118,0.149,1.32,0.165,0.248,0.136
CERCAM,SID363999926,0.305,0.898,0.364,0.255,0.0761
ALLC,SID364001069,0.782,0.514,0.762,0.848,0.736
MTA3,SID364005107,-0.546,2.14,-0.376,-0.319,-0.586
ADRM1,SID363997738,0.692,0.854,0.764,0.823,0.485
ACAD11,SID364003815,0.803,0.861,0.698,0.72,0.927
SLCO1A2,SID363996012,-0.809,4.35,-0.71,-0.668,-0.847
PPIA,SID364002027,-0.326,0.962,-0.42,0.676,-0.552
CWC27,SID363996742,-0.0585,1.95,-0.0149,-0.205,-0.0247
